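Methionyl-tRNA synthetase (putative), Leishmania donovani (UniProt E9BF75). Primary screen of methionyl-tRNA synthetase; the read-out is not stated. The test concentration is not given. The values are filed as inhibition. Size under these conditions: about 68,000 compounds, about 24 of them at 50% or above in at least one test.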

Protein sequences, listed by entry. Tags and fused reporters are not part of them.
UniProt E9BF75, entry or part of it: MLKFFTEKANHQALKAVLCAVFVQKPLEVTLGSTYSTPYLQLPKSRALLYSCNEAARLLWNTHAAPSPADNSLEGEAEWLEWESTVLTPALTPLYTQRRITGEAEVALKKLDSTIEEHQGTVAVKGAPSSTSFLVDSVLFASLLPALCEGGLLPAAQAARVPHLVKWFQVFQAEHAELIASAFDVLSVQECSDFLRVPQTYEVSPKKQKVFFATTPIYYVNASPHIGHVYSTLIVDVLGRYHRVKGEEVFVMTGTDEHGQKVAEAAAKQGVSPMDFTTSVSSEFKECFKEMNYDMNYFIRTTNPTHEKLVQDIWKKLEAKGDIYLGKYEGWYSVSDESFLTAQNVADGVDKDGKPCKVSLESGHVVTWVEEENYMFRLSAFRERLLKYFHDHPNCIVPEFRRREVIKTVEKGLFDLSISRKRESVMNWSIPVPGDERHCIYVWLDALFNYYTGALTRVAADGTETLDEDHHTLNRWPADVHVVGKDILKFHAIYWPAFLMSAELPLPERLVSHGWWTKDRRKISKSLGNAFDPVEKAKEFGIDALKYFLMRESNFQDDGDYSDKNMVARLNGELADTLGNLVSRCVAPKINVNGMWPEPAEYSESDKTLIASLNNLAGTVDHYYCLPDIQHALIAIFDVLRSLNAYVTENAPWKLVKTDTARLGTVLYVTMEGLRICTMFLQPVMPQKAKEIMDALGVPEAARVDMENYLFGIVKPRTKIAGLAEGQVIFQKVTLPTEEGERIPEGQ

All values are in %. How 0% and 100% were set is not recorded. Most values in the screen are low, and negative values occur. This is an unselected part of the compounds tested.

| compound | inhibition |
|---|---|
| `CN(C)c1ncccc1NC(=O)COCC1CC1` | 11.85 |
| `O=S(=O)(C1CC1)N1CCCn2nnc(Cn3cccc3)c2C1` | 6.593 |
| `CC(C)c1ncncc1C(=O)N1CCN(Cc2cscn2)CC1` | 8.571 |
| `N#Cc1cccc(N2CCC(c3nccn3Cc3cscn3)CC2)n1` | 12.29 |
| `CC(=O)N1CCC(c2cncc(N3CCCCCC3)n2)CC1` | 13.3 |
| `Cc1c(COC(C)C)cccc1NC(=O)N1CCCC(CO)C1` (configuration not stated) | 23.92 |
| `COc1ncc(CN2C[C@@H]3CC[C@@](O)(c4ccc(C)cn4)[C@@H]3C2)cn1` | 14.69 |
| `O=C(c1ccc(Br)o1)N1CCN(Cc2ccc(F)cc2)CC1` | 5.177 |
| `Cc1nn(CC(=O)NCCc2ccncc2)c(=O)n1Cc1ccccc1` | 10.47 |
| `Cc1ccccc1-n1cc(C2=CCN(CCN3CCOCC3)CC2)cn1` | 6.145 |
| `Cn1cc(-c2ccc(C3CCCCN3Cc3cccnc3)cn2)cn1` (configuration not stated) | 14.92 |
| `NC(=O)C1CCN(c2nccc(-c3c[nH]nc3C3CCCCC3)n2)CC1` | 16.26 |
| `Fc1cnc(N2CC[C@@H](N3CCOCC3)[C@@H]2Cc2ccncc2)nc1` | 8.901 |
| `c1csc(CN2CCOCC3(CCN(C4CCOCC4)C3)C2)c1` (configuration not stated) | 4.575 |
| `O=S(=O)(c1ccccc1Br)N1CCC2(CC1)OCCS2` | 8.873 |
| `CC(=O)Nc1c(C)noc1/C=C\c1ccc(C)c(S(=O)(=O)NC2CC2)c1` | 0.2208 |
| `Cc1cccc(-n2ncc3c2CCCC3NCC(C)(C)CO)c1C` (configuration not stated) | -0.2874 |
| `Cc1nn(C)c2ncnc(N3CCCC(OCc4ccccn4)C3)c12` (configuration not stated) | 13.14 |
| `O=C(CCCc1nc2ccccc2[nH]1)N1CCCC(n2cccn2)C1` (configuration not stated) | 15.31 |
| `Cc1cc(CN2CCN(C(=O)C(C)C)[C@@H]3CS(=O)(=O)C[C@@H]32)ccc1F` | 19.47 |
| `Cc1ccc(N2CCO[C@H]3CN(Cc4ccccn4)C[C@H]32)nn1` | 5.397 |
| `O=C(NC1CC1)c1ccnc(-c2cc(NCCO)nc3[nH]ccc23)c1` | 6.25 |
| `Cn1cc(C(=O)N[C@@H]2CN(Cc3cccs3)[C@@H]3CCCO[C@@H]32)cn1` | 16.32 |
| `COc1ccccc1CN(CC1CCCO1)C(=O)c1cc(C)n[nH]1` (configuration not stated) | 13.2 |
| `CC(C)OCCNC1(c2ccc(F)cc2)CCOCC1` | 9.429 |
| `CNc1ncc(CN(C)C(=O)c2cccc(Cn3cccn3)c2)cn1` | 16.25 |
| `O=S(=O)(NCCNc1ccc(-n2cccc2)nn1)c1ccccc1` | 8.633 |
| `O=C(Cc1cn2ccsc2n1)N1CCCC(n2cncn2)C1` (configuration not stated) | 7.975 |
| `Cc1cc(C(=O)NS(C)(=O)=O)ccc1I` | 11.6 |
| `CC1CC2(CCN(C(=O)c3c[nH]cn3)CC2)c2ccccc21` (configuration not stated) | 9.89 |
| `Cc1cc(C(=O)N2CC[C@@H]3CN(S(C)(=O)=O)CCO[C@@H]3C2)c(C)o1` | 21.89 |
| `Cc1nn(CCO)c(C)c1CNC1CCc2c(Cl)cccc21` (configuration not stated) | 4.878 |
| `CCCc1ncc(CNC2(c3ccc(Cl)cc3)CCC2)cn1` | 9.646 |
| `Cn1cnc(S(=O)(=O)NCC(O)c2ccc3c(c2)CCO3)c1` (configuration not stated) | 12.54 |
| `CC(=O)NCc1cc2n(n1)CCN(Cc1cccc(Cl)c1Cl)C2` | 10.95 |
| `Cc1nn(CCc2nnc(NCC(C)C)s2)c(C)c1Br` | 11.58 |
| `CCn1nnc2c1C(COCC(=O)N(C)C)CN(Cc1ccoc1)C2` (configuration not stated) | 8.743 |
| `CC(NC(=O)Nc1cccnc1N1CCCC1)c1nncn1C` (configuration not stated) | 11.76 |
| `C=C(C)COc1ccccc1CN1CCC(NC(C)=O)CC1` | 2.872 |
| `CCN1CC(C(=O)N2CC(Oc3ccccc3Cl)C2)CCC1=O` (configuration not stated) | 20.57 |
| `Cc1noc(C2(C)CCCN(C(=O)c3cnn(C)c3)C2)n1` (configuration not stated) | 14.15 |
| `Cc1cccc(CN2CCC3(CCCN(C(=O)c4ccsc4)C3)C2=O)n1` (configuration not stated) | 8.824 |
| `O=C(CN1C(=O)CCC1=O)NCCc1nc(C2CC2)cc(C(F)(F)F)n1` | 10.57 |
| `Cc1cc(C)cc(CCC(=O)N2CCN(c3cc(C)nc(N)n3)CC2)c1` | 10.43 |
| `CCN1CCN(C(=O)Cn2ncc3c2c(C)nn3C(C)C)CC1` | 7.833 |
| `COCc1nc(N(C)C/C=C/c2ccccc2)c2cnn(C)c2n1` | 25.19 |
| `CCCN1CCC(CC(=O)NCc2cc(O)ncn2)CC1` | 15.41 |

For reference, 5 entries once more:

compound	inhibition
O=C(c1ccc(Br)o1)N1CCN(Cc2ccc(F)cc2)CC1	5.177
Cc1nn(CCc2nnc(NCC(C)C)s2)c(C)c1Br	11.58
C=C(C)COc1ccccc1CN1CCC(NC(C)=O)CC1	2.872
Cc1nn(C)c2ncnc(N3CCCC(OCc4ccccn4)C3)c12 (configuration not stated)	13.14
Fc1cnc(N2CC[C@@H](N3CCOCC3)[C@@H]2Cc2ccncc2)nc1	8.901

Source: ChEMBL document CHEMBL3988442, “University of Dundee, Small-Polar-MMV Screening Library” (2021).